experiment: Working time (pot life) of RTV-2 composition with the catalyst tested; details: RTV-2, polyethyl silicate crosslinking agent; catalyst 2.66 mmol per 100 g of slurry

Compound | Working time [min]
CCCCC(CC)C(=O)[O-].CCCCC(CC)C(=O)[O-].CCCCNCCCC.CCCCNCCCC.[Zn+2] (stereo not drawn) [[Zn(2-ethylhexanoate)2 (DBA) 2], [Zn(2-ethylhexanoate)2(N,N-dibutylamine)2]] | 40
CCCCC(CC)C(=O)[O-].CCCCC(CC)C(=O)[O-].CCCCNCCCC.[Zn+2] (stereo not drawn) [[Zn(2-ethylhexanoate)2 (DBA)], [Zn(2-ethylhexanoate)2(N,N-dibutylamine)]] | 80
[Zn(naphthenate)2(N,N-dibutylamine)2] [[Zn(NAPH)2(DBA) 2]] | 46
[Zn(naphthenate)2(n-octylamine)2] [[Zn(NAPH)2(OA) 2]] | 30
zinc 2-ethylhexanoate [[Zn(2-ethylhexanoate)2], reference compound] | 2880
zinc naphthenate [[Zn(NAPH)2], reference compound] | 2880
zinc neodecanoate [[Zn(ND)2)], reference compound] | >2900

same assay, conditions: RTV-2, polyethyl silicate crosslinking agent; catalyst 2.66 mmol per 100 g of slurry (UL28 0.886 mmol per 100 g)

Compound | Working time (mn)
[Zn(neodecanoate)2(N,N-dibutylamine)2] [[Zn(ND)2(DBA)2]] | 39
[Zn(neodecanoate)2(N,N-dibutylamine)] [[Zn(ND)2(DBA)]] | 120
[Zn(neodecanoate)2(n-octylamine)2] [[Zn(ND)2(OA)2]] | 32
[Zn(neodecanoate)2(n-octylamine)] [[Zn(ND)2(OA)]] | 157
dimethyltin dineodecanoate [UL28, reference compound] | 40

Reference: patent US9458319B2, “Article with antifouling properties, intended for aquatic uses and, in particular, for marine uses” (BLUESTAR SILICONES FRANCE SAS, priority 2012, dated 2016)
